# Data taken from US4330532A (Richter Gedeon Vegyeszeti Gyar Rt., priority 1980, dated 1982).
# Some peptides are written in HELM: one residue between dots, names in brackets for other building blocks, links after the first $.
# Assay: general procedure: solution-phase peptide synthesis; pentafluorophenyl active esters (e.g. Z-Sar-OPfp)
# Details: late stage modification step
row,Substance,step yield
1,PEPTIDE1{[Sar].R.V.Y.I.H.P.[HMV]}$$$$V2.0,67%
2,PEPTIDE1{[Sar].R.V.Y.I.H.P.[Lac].[OEt]}$$$$V2.0,96%
3,"(Sar^1,Lac-OEt^8)-Ang-II Dnp-free protected octapeptide",89%
4,"(Sar^1,HMV^8)-Ang-II Dnp-free protected octapeptide",80%
5,"(Sar^1,Lac^8)-Ang-II Dnp-free protected octapeptide",89%
6,PEPTIDE1{[Sar].R.V.Y.I.H.P.[Lac]}$$$$V2.0,84%

# Same assay, conditions: whole synthesis, calculated for His
Substance,isolated yield,crude yield
Z-Sar-Arg(NO2)-Val-Tyr(Bzl)-Ile-His(Dnp)-Pro-Lac-OEt,17.5%,–
Z-Sar-Arg(NO2)-Val-Tyr(Bzl)-Ile-His(Dnp)-Pro-HMV-OBzl,–,30%
Z-Sar-Arg(NO2)-Val-Tyr(Bzl)-Ile-His(Dnp)-Pro-Lac-OBzl,–,29.6%
